Data taken from PubChem BioAssay AID1347076 (National Center for Advancing Translational Sciences (NCATS), 2019).
Among all 400,000 compounds or so, about 13,000 (3.2%) were called active. This list was built around the results that the source calls inconclusive (neither active nor inactive); the mix of calls is not that of the screen. Calls come from the whole dose curve; as a rule, active = well fitted cell-killing curve with a large enough effect; inconclusive = small, poorly fitted or top-dose-only effect, or effect the other way; inactive = flat fitted curve, though single readings scatter. Potencies of inconclusive entries are doubtful fits and often do not repeat.

Assay: qHTS assay for MDR1-selective chemotherapeutics: Primary screen using the drug-selected MDR subline cells KB-V1; note: nearly all actives have a fitted effect of over 60% in size
Conditions: KB-V1 MDR cells viability, CellTiter-Glo, 72 h; activity change, negative = cytotoxicity: at 46.1 µM (top of the series)
Summary of the method: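 Compound-treated KB-V1 multidrug-resistant cells, 72 h, 37 degrees C; viability by CellTiter-Glo. Fitted qHTS curves give the values.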
% is set by controls: 0 for no effect and ±100 for the full control effect; potency is the fitted concentration of half-maximal effect.

SMILES | Potency | activity change, negative = cytotoxicity
Cc1cc(C)c(NC(=O)CN(c2ccccc2)S(=O)(=O)N(C)C)c(C)c1 | inconclusive: 14.6 µM [cytotoxic, single point] | –
Fc1ccc(-c2nc3ccc(Cl)cn3c2Cc2ccccc2)cc1 | inconclusive: 29.1 µM [rising, single point] | –
CCOC(=O)c1ccc(S(=O)(=O)N2CCN(Cc3cc4c(cc3O)OCO4)CC2)cc1 | inactive | –
Cc1ccc(NC(=O)c2ccc(Cl)c(N3C(=O)C=CC3=O)c2)cc1 | inconclusive: 29.1 µM [cytotoxic, single point] | –
COc1ccc(/C=N/NC(=O)c2sccc2C)c2ccccc12 | inactive | –
O=[N+]([O-])c1c(C(Cl)Cl)nn(-c2ccccc2)c1N1CCOCC1 | inactive | –
CN1CCN(CCc2nc3cc(NC(=O)COc4ccc([N+](=O)[O-])cc4)ccc3n2C)CC1 | inconclusive: 16.4 µM [rising, single point] | –
CCN(CC)CCNC(=O)c1ccc(NC(=O)c2cn(-c3ccccc3)nc2-c2cccs2)cc1 | inconclusive: 20.6 µM [cytotoxic, single point] | –
COc1ccc(C(=O)c2ccc(OC)c(OC)c2)cc1OC | inactive | –
CCN=C1SC(C(=O)NCCc2ccccc2)CC(=O)N1CC (configuration not stated) | inactive | –
CC(=O)N1CCN(c2nc(-c3cccs3)nc3ccccc23)CC1 | inconclusive: 9.2 µM [cytotoxic, partial curve] | –
COc1cccc(-c2csc(N3CCN(C(=O)C4CCCCC4)CC3)n2)c1 | active: 18.4 µM | –
NC(=NC(=O)c1ccccc1)N1CCN(C(c2ccccc2)c2ccccc2)CC1 | inconclusive: 23.1 µM [cytotoxic, single point] | –
CC1(C(=O)Nc2cccc(C#N)c2)CCN1C(=O)C/C=C/c1ccccc1 (configuration not stated) | inconclusive: 16.4 µM [cytotoxic, partial curve] | –
CCOC(=O)C1=C(C)Nc2nc(SC)nn2C1c1ccc(C(=O)OC)cc1 (configuration not stated) | active: 5.8 µM | –
CCOC(=O)C(=O)NCC(c1ccco1)S(=O)(=O)c1cccs1 (configuration not stated) | inactive | –
O=S(=O)(c1ccc2c(c1)C(=NO)c1cc(S(=O)(=O)N3CCCCC3)ccc1-2)N1CCCCC1 | active: 5.17 µM | –
CCOc1ccc(NC(=O)c2cnn3c2NC(c2ccccc2)=CC3c2cccc(OC)c2OC)cc1 (configuration not stated) | inactive | –
CS(=O)(=O)N(CC(=O)Nc1ccccc1Sc1ccccc1)C1CCCCC1 | active: 5.8 µM | –
Nc1ncc(Br)cc1S(=O)(=O)N1CCCCCC1 | inconclusive: 29.1 µM [cytotoxic, single point] | –
Cc1ccc(S(=O)(=O)N2CCOCC2)cc1C(=O)OCC(=O)NCc1ccccc1 | inconclusive: 10.3 µM [cytotoxic, partial curve] | –
CN(Cc1cccc2cnccc12)C(=O)CCc1nnc(CCc2ccccc2)o1 | inconclusive: 18.4 µM [cytotoxic, single point] | –
Cc1ccc(NC(=O)N(Cc2c[nH]c3ccccc23)C2CCCCCC2)cc1C | inconclusive: 29.1 µM [cytotoxic, single point] | –
Cc1cc(C)c(S(=O)(=O)NCC2CCC(C(=O)NCc3ccccn3)CC2)c(C)c1 (configuration not stated) | inconclusive: 29.1 µM [cytotoxic, partial curve, poor fit] | –

Single records (already shown). Values in the order: Potency	activity change, negative = cytotoxicity
CC(=O)N1CCN(c2nc(-c3cccs3)nc3ccccc23)CC1 as listed: inconclusive: 9.2 µM [cytotoxic, partial curve]	–
CCN(CC)CCNC(=O)c1ccc(NC(=O)c2cn(-c3ccccc3)nc2-c2cccs2)cc1 as listed: inconclusive: 20.6 µM [cytotoxic, single point]	–

Additional structures follow:

SMILES | Potency | activity change, negative = cytotoxicity
Cc1ccc(C(=O)c2cc([N+](=O)[O-])ccc2N2CCOCC2)cc1C | active: 3.66 µM | –
O=C(NCCC1=CCCCC1)c1coc(=O)c(Br)c1 | inconclusive: 9.2 µM [cytotoxic, partial curve] | –
COc1ccc(CCNC(=O)Cc2c(C)c3ccc(O)c(C)c3oc2=O)cc1OC | inactive | –
COc1ccc(CCNC(=O)c2cc(-c3ccccc3)on2)cc1OC | inconclusive: 29.1 µM [cytotoxic, single point] | –
COC(=O)[C@]1(C)CCC[C@@]2(C)C3CC[C@@]4(C)C[C@]3(CCC21)CC4=NO (some centres not stated) | inactive | –
CCN(CC(=O)Nc1cccc(S(=O)(=O)N2CCCC2)c1)CC(=O)Nc1ccccc1OC | inconclusive: 7.31 µM [cytotoxic, partial curve, poor fit] | –
COc1cccc(C(=O)NN/C(C)=C/C(=O)C(F)(F)C(F)(F)C(F)(F)F)c1 | inactive | –
O=C(Nc1nc(-c2ccc3c(c2)OCCO3)cs1)c1ccc(S(=O)(=O)N2CCCCC2)cc1 | active: 8.2 µM | –
Cc1nc(Cc2nnc(SC(C)C(=O)Nc3ccccc3)o2)cs1 (configuration not stated) | inactive | –
CCCOc1ccc2cc(-c3ccccn3)c(=O)oc2c1 | inconclusive: 29.1 µM [cytotoxic, single point] | –
O=C(OCCN1CCOCC1)c1ccccc1 | inconclusive: 10.3 µM [rising, partial curve, poor fit] | –
CCOc1ccc(NC(=O)c2cccc3c(=O)c4c([nH]c23)CCCC4)cc1 | inactive | –
CC[C@]12C(=O)N(C)C[C@H]([C@@H]3C(=O)N(Cc4ccccc4)C(=O)[C@@H]31)N2C(=O)c1ccc(F)cc1 | inactive | –
Cc1cc(C)c(S(=O)(=O)N2CCN(C)CC2)c(C)c1 | inconclusive: 29.1 µM [cytotoxic, single point] | –
COc1cc(CNC(=O)c2cc(-c3cc(F)ccc3OC(C)C)n[nH]2)cc(OC)c1 | inactive | –
O=c1c2ccccc2nnn1CSc1ccc2ccccc2n1 | active: 23.1 µM | –
O=C(Nc1cccc2cccnc12)c1csc(COCCO)n1 | inactive | –
O=C(CNCC1CCCO1)Nc1ccc(N2CCCCCC2)cc1 (configuration not stated) | active: 20.6 µM | –
COc1cc2ccccc2cc1C(=O)Nc1ccc(NC(=O)c2cccs2)cc1 | inactive | –
COc1ccccc1NC(=O)C1CCCN(C(=O)NCc2ccccc2)C1 (configuration not stated) | inactive | –
COC(=O)c1ccc(NC(=S)N2CCN(Cc3ccc(Cl)cc3)CC2)cc1 | inconclusive: 11.6 µM [cytotoxic, partial curve, poor fit] | –
CC(=O)S[C@@H]1CC2=CC(=O)CC[C@]2(C)[C@H]2CC[C@@]3(C)[C@@H](CC[C@@]34CCC(=O)O4)[C@H]12 | inconclusive: 9.2 µM [cytotoxic, partial curve] | –
COc1ccc(CNC(=O)CCn2c(C)csc2=O)cc1 | – | inconclusive: -0.0493%
